Reference: publication PMC6221343
Results are given in words; binding and its absence hold for the method and conditions named. In cells and extracts the contact can be indirect. Some results given as binding are weak or reduced against the parent protein; the word gives no strength. Sequences can lack the tags named with a protein.

T1: Apl2-VN (AP-1 beta-subunit Apl2 fused with the N-terminal fragment of Venus) (S. cerevisiae) (UniProt P36000)
T1 sequence: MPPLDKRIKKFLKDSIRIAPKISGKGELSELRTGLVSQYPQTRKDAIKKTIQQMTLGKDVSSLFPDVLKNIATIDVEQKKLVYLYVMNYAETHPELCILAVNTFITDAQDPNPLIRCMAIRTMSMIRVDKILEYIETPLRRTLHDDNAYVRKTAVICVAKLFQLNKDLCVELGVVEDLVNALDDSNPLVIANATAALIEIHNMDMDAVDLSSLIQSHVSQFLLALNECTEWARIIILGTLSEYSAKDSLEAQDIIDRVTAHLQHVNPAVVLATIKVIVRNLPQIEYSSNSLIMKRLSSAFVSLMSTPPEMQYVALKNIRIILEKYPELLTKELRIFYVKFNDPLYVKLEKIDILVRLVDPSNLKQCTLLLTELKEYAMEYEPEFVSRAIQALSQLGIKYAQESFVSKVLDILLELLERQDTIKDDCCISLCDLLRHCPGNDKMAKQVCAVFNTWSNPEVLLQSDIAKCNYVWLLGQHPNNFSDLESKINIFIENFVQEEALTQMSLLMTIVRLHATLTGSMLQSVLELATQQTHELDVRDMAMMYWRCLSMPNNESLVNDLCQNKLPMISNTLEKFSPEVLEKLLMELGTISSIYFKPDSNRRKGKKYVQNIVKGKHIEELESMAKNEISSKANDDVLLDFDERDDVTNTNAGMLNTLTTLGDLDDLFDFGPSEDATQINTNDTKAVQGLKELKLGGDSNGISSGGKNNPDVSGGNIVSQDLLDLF


Target: T1, Apl2-VN (AP-1 beta-subunit Apl2 fused with the N-terminal fragment of Venus) (S. cerevisiae)
Assay: split reporter; BiFC: the two proteins fused with the N-terminal (VN) or C-terminal (VC) fragment of Venus at their endogenous loci; living yeast cells imaged for YFP fluorescence

Row | Binder | binding
1 | Apl4-VC (AP-1 gamma-subunit Apl4 fused with the C-terminal fragment of Venus) (protein, UniProt Q12028 1-832) MGSSLRSFIKDVRGAKTLADERAIITKQSAKIRTKLRDDHLPHEKRRVNIQKLLYLYILGEKTHFGQVESINLIASDDFVDKRLGYLAATLLLDESEDLLTLLTNMLNNDLHHPNKYAVSLALTSLGFLSSPELARDLYPDVENIIKNSRDPFLLKKALQCAAKLIFKDVSLLEIFNIEDITKILSSHSICTHGVLLGVTKIIQSILLIGLNRKKDEDEDEDGIDYSNDILSPLSLLLRDFFIRLENMNSKNIEPGYDVQGICDPFLQCEIIYTLKLYFQVGELLNSNNVLDYKDNFCDLLTRIATNTDSTKNSGQAILYETVKTIFSLDLNQPLRVLGINILAKFLAGKDNNTKYVSLNTLLKVVPQEPTAVQRHRKFISHCLQDTDVSIRMRALELSFAILDDSNLVELVNELMKFLAKQDEDSKDLIIYTIDHLIDTFDTRVVKDESWKLDVFFNILKLVGSFINYEKINDILIIINNTSQLSDKSEFLRKMLTISLNGTSAEISEENIGWQLVLIWCIGEYGDLVLNEGNKNGADIINESSITDYLLTLQELYTATNLKIINYILTAALKLSVRFHDAKNIEKLRQLILSYTDSTDLSLQMKSNQYEIFFNQSISVKKIILETMPKFEKITEEQDNGKALSKNLISNEPVDLLSDLLGEDSKAESKASTGDNVKPIDILEEIFGEKNDIAQVPKNANKEESINHSSAVEANSGVTLPLDANKIYDSSSLNVYASLLSANSGLAHLDLYFQAKSLISDLKTFCAVPKAQKLTLGQLYPSSTINASQICKQSLKISGSGKLKLRVKLDFHLNGSSSITNEQFDHKFDETL | binds
2 | Ldb19-VC (Ldb19/Art1 fused with the C-terminal fragment of Venus) (protein, UniProt Q12502 1-818) MAFSRLTSTHQSNHNGYSNSNKKGQSLPLTLSIDVESPPCVLYGSAMESSGAVLSGLFTVTVVDPYSSAEDKSLKNTESNVSTTSKSLKRKSTFGSALSSRLSSLSASTSNISPSTSSTSISHSPTPANLRIMAGYTKITITSVTLSLVQKIHFHKPFVPNISSMQTCMNCKTKITNMKSWEIQSNTQDLSVGSHSYPFSYLIPGSVPCSSSLGATAETQVKYELIAVVTYIDPHRNSFSSGHSTPRKEGSSSKKRLLQLAMPIAVTRSIPRGPDKNSLRVFPPTELTAAAVLPNVVYPKSTFPLEMKLDGVSSGDRRWRMRKLSWRIEETTRVKAHACPVHKHELRQLEEQVKIKESEKSKKPRSHIKRYGELGPQIRVAVNSLENMPSQRLPGEPGREQAPNSSGPASTGNVGLDDENPVNEDEEDQPGSEFIHPSDDALRQELLMQQQRARQQQLQQELKNNSSLFTEEVRIISKGEMKSGWKTDFDNNGKIELVTEIDCMGLNSGVSNPVMHASTLQTPSTGNKKPSINVACDIQDPNLGLYVSHILAVEIVVAEETLQYANGQPIRKPNSKNKKETNNNTMNVHNPDQRLAELSPIFANRNTPKVRRMGPEDITPVNSNKSNHSTNKEKASNGASNSNIVSVPTGAARVLRMQFRLTVTERSGLGISWDEEVPPIYQDVELLSPPCYELSINNGIKNKLYSTMSTPVRSEDDFVGGSDEDIGNYESQGLEPGPNVQEVTITQNKLTIPPTAHHYQPASSSQRSLTTVQSPPLESVVSVQGSVPFRGHVLTPHSTRDIRIQNFSDFLDSNRITQ | no binding
